Results: paper PMC11169524
For at least one entry, the source does not settle the construct or the ends of the probe. At least one result comes from cells or an extract, where the contact may be indirect. At least one verdict rests on a figure or table, not on a statement of the authors.

Protein sequences, listed by entry. Tags and fused reporters are not part of them. Residues count along the entry.
UniProt Q9EP73, 19-290: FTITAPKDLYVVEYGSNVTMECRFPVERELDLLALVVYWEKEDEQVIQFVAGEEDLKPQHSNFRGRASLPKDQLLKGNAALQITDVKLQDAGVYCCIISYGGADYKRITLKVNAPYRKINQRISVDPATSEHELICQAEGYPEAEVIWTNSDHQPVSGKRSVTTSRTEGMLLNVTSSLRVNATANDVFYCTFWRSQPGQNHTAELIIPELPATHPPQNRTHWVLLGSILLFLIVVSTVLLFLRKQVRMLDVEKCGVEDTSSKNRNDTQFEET

Molecular target: PD-L1 on B16F10 melanoma cells (endogenous) (mouse (B16F10 cells)) (UniProt Q9EP73)
Assay: flow cytometry (cell binding)
Conditions: 170 nM aptamer, B16F10/splenocyte 1:10 mix, 5% BSA, 410% higher on B16F10 than splenocytes; 3' cholesterol (per Supplementary Table 1); Flow cytometry on cells: 170 nM aptPD-L1-FAM or 360 nM eCpG-FAM, 30 min with 5% BSA, PBS wash; pH and temperature not stated; DC assay conditions not given; protein on the cell surface; label: 5' FAM; single-stranded DNA

Q: Does “CCAACGGTCCATGTGTTCAGACGAGACGAACTTATGCGTATACATTGTCACTCCCCGCCATTTTTT [FAM-aptPD-L1-Chol]” bind?
A: Result: binds
